According to patent US20250197505A1:
No constants are given. Whether binding was seen depends on the method and setting. Some results given as binding are weak or reduced against the parent protein; the word gives no strength.

Amino acid sequences for entries named in this document (tags omitted).
UniProt Q13241: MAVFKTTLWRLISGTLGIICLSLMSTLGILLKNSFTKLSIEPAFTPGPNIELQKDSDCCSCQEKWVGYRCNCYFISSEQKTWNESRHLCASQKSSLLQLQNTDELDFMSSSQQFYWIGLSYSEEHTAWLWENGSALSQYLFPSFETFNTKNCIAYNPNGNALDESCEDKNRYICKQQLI

Tests used:
[1] = molecular target: human CD94 expressed on cells (human primary NK cells in PBMCs; HEK cells expressing human CD94) (human) (UniProt Q13241); assay: competition assay, flow cytometry on CD3-CD56+ NK cells in healthy donor PBMCs; AF647-labelled 18H3 titrated, incubated concurrently with a fixed concentration of 1M4 or Mouse IgG1, or of 1E4 or Human IgG1
[2] = molecular target: human CD94 expressed on cells (human primary NK cells in PBMCs; HEK cells expressing human CD94) (human) (UniProt Q13241); assay: flow cytometry, hybridoma supernatant on human primary NK cells

binding [1]: binds | binding [2]: binds
B1: anti-CD94 antibody clone 18H3 (antibody, V domains shown)
VH: EVQLVQSGAEVKKPGESLKISCKGSGYRFTSYWIGWVRQMPGKGLEWMGIIYPGDSDTRYSPSFQGQVIISADKSITTAFLQWSSLKASDTAMYYCARPFDYGGSPGYFDYWGQGTLVTVSS
VL: DIQMTQSPSTLSASVGDRVTITCRASQSIRSWLAWYQQKPGKAPKLLIYKASSLESGVPSRFSGSGSGTEFTLTISSLQPDDFATYYCQQYNTFWTFGQGTKVEIK
